# Library screen at single concentrations

Protein sequences, listed by entry. Tags and fused reporters are not part of them. Residues count along the entry.
UniProt I6X8D2, whole entry: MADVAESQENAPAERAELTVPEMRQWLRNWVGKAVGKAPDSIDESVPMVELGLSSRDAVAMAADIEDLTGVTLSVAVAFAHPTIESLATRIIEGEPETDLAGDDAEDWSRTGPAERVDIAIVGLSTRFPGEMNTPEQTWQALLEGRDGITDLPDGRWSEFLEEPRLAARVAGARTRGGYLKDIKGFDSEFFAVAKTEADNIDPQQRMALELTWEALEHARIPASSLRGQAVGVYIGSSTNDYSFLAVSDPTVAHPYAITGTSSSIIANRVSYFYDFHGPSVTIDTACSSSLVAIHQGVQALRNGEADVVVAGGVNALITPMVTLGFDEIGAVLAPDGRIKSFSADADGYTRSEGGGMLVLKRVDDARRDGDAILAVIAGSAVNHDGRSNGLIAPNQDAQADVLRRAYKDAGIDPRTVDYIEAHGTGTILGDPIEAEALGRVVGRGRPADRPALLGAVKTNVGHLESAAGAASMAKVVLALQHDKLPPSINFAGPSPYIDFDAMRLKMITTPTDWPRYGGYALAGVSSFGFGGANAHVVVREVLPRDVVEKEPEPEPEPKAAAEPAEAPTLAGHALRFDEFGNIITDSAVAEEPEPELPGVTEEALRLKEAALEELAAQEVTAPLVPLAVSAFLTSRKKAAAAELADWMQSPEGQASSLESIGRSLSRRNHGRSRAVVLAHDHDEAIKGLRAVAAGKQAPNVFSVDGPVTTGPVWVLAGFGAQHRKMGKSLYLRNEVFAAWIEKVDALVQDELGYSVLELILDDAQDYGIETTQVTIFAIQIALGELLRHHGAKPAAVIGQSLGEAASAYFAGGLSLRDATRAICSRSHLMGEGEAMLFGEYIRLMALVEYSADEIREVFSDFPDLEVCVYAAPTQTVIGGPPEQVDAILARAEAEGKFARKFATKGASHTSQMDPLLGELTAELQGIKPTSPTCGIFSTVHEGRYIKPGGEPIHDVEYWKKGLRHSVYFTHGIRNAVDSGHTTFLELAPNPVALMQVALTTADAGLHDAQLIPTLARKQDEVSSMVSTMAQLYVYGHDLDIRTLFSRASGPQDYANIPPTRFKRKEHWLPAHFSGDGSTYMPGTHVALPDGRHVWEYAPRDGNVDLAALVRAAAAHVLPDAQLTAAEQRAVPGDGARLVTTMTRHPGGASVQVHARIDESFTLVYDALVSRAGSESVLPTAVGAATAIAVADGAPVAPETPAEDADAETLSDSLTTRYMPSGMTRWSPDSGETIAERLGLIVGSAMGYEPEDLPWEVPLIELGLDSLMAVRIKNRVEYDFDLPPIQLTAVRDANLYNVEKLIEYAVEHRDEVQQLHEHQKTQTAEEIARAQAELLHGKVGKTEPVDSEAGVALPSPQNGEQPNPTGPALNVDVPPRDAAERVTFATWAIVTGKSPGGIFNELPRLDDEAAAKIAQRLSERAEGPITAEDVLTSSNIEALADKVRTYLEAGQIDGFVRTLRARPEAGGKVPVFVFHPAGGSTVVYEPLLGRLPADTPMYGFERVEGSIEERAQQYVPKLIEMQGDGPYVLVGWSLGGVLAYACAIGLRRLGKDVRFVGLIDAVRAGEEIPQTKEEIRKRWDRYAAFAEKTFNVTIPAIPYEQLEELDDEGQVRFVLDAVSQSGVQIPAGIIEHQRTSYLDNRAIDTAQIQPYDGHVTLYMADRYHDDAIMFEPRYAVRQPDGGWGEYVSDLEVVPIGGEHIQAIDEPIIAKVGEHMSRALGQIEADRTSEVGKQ
UniProt Q4DA54, 1-478: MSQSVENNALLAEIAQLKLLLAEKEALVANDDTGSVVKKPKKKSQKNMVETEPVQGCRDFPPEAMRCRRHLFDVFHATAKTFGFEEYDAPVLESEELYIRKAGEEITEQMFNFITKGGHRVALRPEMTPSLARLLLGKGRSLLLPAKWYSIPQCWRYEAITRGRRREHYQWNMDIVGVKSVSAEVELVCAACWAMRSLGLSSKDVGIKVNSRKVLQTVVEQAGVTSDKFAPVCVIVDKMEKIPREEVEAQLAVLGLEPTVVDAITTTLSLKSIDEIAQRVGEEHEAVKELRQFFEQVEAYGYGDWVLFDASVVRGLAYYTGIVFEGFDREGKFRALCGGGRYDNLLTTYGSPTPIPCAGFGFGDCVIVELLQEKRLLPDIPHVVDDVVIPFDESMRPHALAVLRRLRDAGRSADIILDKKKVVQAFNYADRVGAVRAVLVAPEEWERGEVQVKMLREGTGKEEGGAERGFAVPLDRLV
UniProt P9WFT3, whole entry: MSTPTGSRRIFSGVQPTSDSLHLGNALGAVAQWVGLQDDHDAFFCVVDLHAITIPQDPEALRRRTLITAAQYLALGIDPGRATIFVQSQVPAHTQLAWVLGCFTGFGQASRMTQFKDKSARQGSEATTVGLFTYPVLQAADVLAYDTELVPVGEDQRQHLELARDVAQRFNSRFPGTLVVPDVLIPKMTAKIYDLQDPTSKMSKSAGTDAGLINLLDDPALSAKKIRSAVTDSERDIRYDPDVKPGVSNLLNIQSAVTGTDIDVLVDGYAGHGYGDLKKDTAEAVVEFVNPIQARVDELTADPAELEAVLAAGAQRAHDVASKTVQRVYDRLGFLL
UniProt P9WPC5, whole entry: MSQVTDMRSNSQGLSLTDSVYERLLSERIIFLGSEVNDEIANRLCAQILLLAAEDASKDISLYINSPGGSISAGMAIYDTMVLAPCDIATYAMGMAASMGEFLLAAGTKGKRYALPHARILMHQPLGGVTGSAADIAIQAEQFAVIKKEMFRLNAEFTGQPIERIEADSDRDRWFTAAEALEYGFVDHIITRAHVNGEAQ
UniProt P9WPC3, whole entry partner: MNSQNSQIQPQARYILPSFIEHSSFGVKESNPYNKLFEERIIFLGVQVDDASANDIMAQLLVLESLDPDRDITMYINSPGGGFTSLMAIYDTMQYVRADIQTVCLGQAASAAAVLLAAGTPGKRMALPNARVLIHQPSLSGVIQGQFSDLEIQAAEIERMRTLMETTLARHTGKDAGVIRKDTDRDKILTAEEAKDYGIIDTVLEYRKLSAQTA

The filed quantity is “Percent Effect” (%). How 0% and 100% were set is not recorded. Most values in the screen are low, and negative values occur. The compounds are a random part of those screened. A dash means the value is not listed here; it may have been measured.

Pks13 thioesterase: 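Polyketide synthase Pks13, Mycobacterium tuberculosis (UniProt I6X8D2). Enzyme assay of the thioesterase domain of polyketide synthase 13; the read-out is not stated. Concentration: 30 µM. Higher reads as stronger inhibition (inferred from which compounds were picked for retests). About 67,000 compounds were tested under these conditions; 0.46% (about 300) showed 50% or more at least once.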
TcHisRS: 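Enzyme assay of histidyl-tRNA synthetase; the read-out is not stated. Target: Histidine-tRNA ligase, Trypanosoma cruzi CL Brener (UniProt Q4DA54). Concentration: 30 µM. Direction is inferred from retests: higher values go with stronger inhibition. Of about 69,000 compounds tested this way, about 31 (0.045%) reached 50% or more in at least one test.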
MtTrpRS: 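Enzyme assay of tryptophanyl-tRNA synthetase; the read-out is not stated. Target: Tryptophan-tRNA ligase, Mycobacterium tuberculosis (UniProt P9WFT3). Concentration: 10 µM. Direction is not recorded; retested compounds ran higher, which suggests that high means inhibition. Size under these conditions: about 65,000 compounds, about 64 of them at 50% or above in at least one test.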
ClpP1P2: 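Protease assay of ClpP1P2, read by the AMC dye that it sets free. Target: ClpP1P2, Mycobacterium tuberculosis (UniProt P9WPC5 and UniProt P9WPC3). Compounds at 50 µM. Direction is inferred from only a few compounds that gave an IC50; most scored high, so higher reads as stronger inhibition. Most other retested compounds had strongly negative values. About 69,000 compounds were tested under these conditions; 0.015% (about 10) showed 50% or more at least once.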

compound | Pks13 thioesterase | TcHisRS | MtTrpRS | ClpP1P2
CCn1cc(C(=O)N(C)Cc2c(F)cccc2Cl)cn1 | -6.472 | -1.205 | -0.3458 | -1.512
O=C1CCC2(CCCN(C(=O)c3ccoc3)C2)CN1Cc1ccncc1 (centres unmarked) | -21.15 | 1.136 | -1.443 | 4.851
CNC(=O)C(C)(C)CNC(=O)Nc1ccc(C)cn1 | -11.06 | 3.784 | -7.923 | -19.61
CC(=O)N1C[C@@H]2CC[C@H](C1)N(C(=O)CCc1n[nH]c3c1CCCC3)C2 | -11.98 | 9.74 | -1.469 | -3.807
COCCn1cc(C(=O)N2CCCC2c2ccccc2C)ccc1=O (centres unmarked) | -6.363 | 2.062 | -5.09 | -3.006
COC(=O)C(C)(C)NC(=O)c1cnc(C(C)(C)C)s1 | -10.11 | 2.041 | -0.6734 | -4.636
CC(C)(C)c1noc(CCC(=O)N2CCN(Cc3ccc(Cl)s3)CC2)n1 | -3.07 | 3.509 | -0.6461 | 15.47
Cc1ccc2cc(C3(O)CCN(C(=O)CSC(C)C)CC3)ccc2n1 | -17.83 | 4.233 | -0.09234 | -0.5566
CCn1ccnc1CN1CCCN(C(=O)c2cc[nH]n2)CC1 | -22.86 | 8.824 | -0.208 | -29.21
CC(C)c1noc(-c2ccnc(-n3cnc(C(=O)O)c3)c2)n1 | -5.969 | 4.124 | 1.386 | -1.567
CC1CCN(C(=O)c2cccc(CN3CCOCC3)c2)CC1 | -5.507 | 1.508 | 7.483 | -7.417
O=C(c1ccco1)N1CCOCC2(CCN(C3CCOCC3)C2)C1 (centres unmarked) | -23.93 | -0.5464 | -1.206 | -6.153
Cc1nccn1C1CCCN(C(=O)c2ccc3c(c2)nnn3C)C1 (centres unmarked) | -11.7 | 1.515 | -1.267 | -0.5819
CCc1nc(N2CCN(c3ncccn3)CC2)c2cnn(C)c2n1 | -26.89 | 5.6 | -0.4831 | 4.51
CCOc1cccc2c1OCC(C(=O)NS(=O)(=O)c1ccc(Cl)cc1)=C2 | -10.86 | -2.256 | -1.8 | 3.831
Cc1ccnc(NCCNC(=O)c2ccccc2NCC(=O)O)c1 | -33.92 | 4.39 | 1.498 | -21.55
CS(=O)(=O)c1ncc(CN2CCCC(C(N)=O)C2)n1CC1CCCCC1 (centres unmarked) | -23.92 | 2.116 | 0.4617 | -1.865
CS(=O)(=O)N1CC[C@@H](CC(=O)O)[C@@H](CC2=NCCc3cc(F)ccc32)C1 | -23.74 | 6.931 | 4.593 | -10.71
O=C(CN1CCc2cncnc2C1)NCCOc1cccc(Cl)c1 | -15.29 | 14.45 | -3.712 | -18.03
CC1CCCN(Cc2ccc(OCc3nccn3C)cc2)C1 (centres unmarked) | -31.13 | 4.023 | 20.35 | 0.1158
O=C1CC2(CCSC2)C(=O)N1Cc1coc(-c2ccc(F)cc2)n1 (centres unmarked) | -28.26 | 3.867 | -4.644 | -8.356
CCNC(=O)c1cccc(CNC(=O)c2cnc(C(C)(C)C)s2)c1 | -3.981 | 7.182 | -5.647 | -18.23
CN1CCCC2(CCN(c3cc(C(F)(F)F)nc(N(C)C)n3)C2)C1=O (centres unmarked) | -2.505 | 6.404 | 1.737 | 5.114
NC(=O)N1CCCC(C(=O)NCCc2nc(Cc3ccccc3)no2)C1 (centres unmarked) | -18.37 | 10.84 | 1.452 | -2.884
CCc1ccc(S(=O)(=O)N2CCCC3(CCCN3S(C)(=O)=O)C2)cc1 (centres unmarked) | -18.83 | 2.804 | 8.621 | 32.84
CCCN(CC)c1cc(C2CCNCC2)nc(C)n1 | 7.581 | 15 | -1.175 | 18.84
CCn1cc(C(=O)NC2CCN(S(C)(=O)=O)CC2)c2ccccc21 | -15.97 | -1.695 | 1.006 | 6.459
CS(=O)(=O)CCSc1nnc(Cc2ccccc2F)o1 | - | 0 | 5.235 | -11.1
CCOc1ccc(S(=O)(=O)Nc2cnc(OC)nc2OC)cc1 | -11.43 | 3.415 | 1.341 | -21.97
O=S(=O)(C1CC1)N1CCc2ncc(Cn3cccn3)n2CC1 | 22.75 | 5.882 | -3.173 | -2.738
CC(CN1CCCCCC1)NCc1nncn1C1CCCCC1 (centres unmarked) | -30.2 | 5.291 | 0.6463 | -5.907
OCCc1cc(C2CCCN2c2ncccn2)n[nH]1 (centres unmarked) | -6.195 | 1.695 | -2.546 | -12.28
O=c1[nH]cnc2c1CCN(S(=O)(=O)c1cccc(OC(F)(F)F)c1)C2 | 4.205 | 14 | 2.937 | 1.411
Cc1cnc2n(c1=O)C(CC(=O)NCc1cccs1)CS2 (centres unmarked) | -4.437 | 9.548 | -0.7337 | 2.999
COCCN1CC(C(=O)N(C)Cc2cc(-c3cccnc3)no2)CC1=O (centres unmarked) | -12.75 | 10.53 | 0.2064 | -2.178
CCCc1ccc(S(=O)(=O)NC(=O)CCC2CCCO2)cc1 (centres unmarked) | -9.238 | 2.035 | -1.695 | -15.49
CC(C)n1nc(CNc2ncccn2)c2c1CN(C1CCOCC1)CC2 | -30.25 | 5.806 | -7.091 | 8.81
CC(C)Cn1cnnc1C1CCCN1C(=O)c1ccc(F)cc1F (centres unmarked) | -18.43 | 7.182 | -0.4914 | -7.47
CCCc1cc(N2CCC(NCC3(O)CCN(C)CC3)CC2)nc(C)n1 | 4.102 | 1.932 | -4.776 | -12.81
Cc1nc(NCc2cccnc2)cc(C2COCCN2)n1 (centres unmarked) | 6.832 | 3.955 | -5.026 | -10.28
Cn1cc(I)c(C(=O)NC2CCCC2)n1 | 5.321 | 6.14 | -4.523 | 6.613
CNc1ccnc(N2CCC(c3nnc(CN4CCCC4)n3C)CC2)n1 | 16.17 | 4.865 | -2.355 | 12.96
CNc1cc(C)nc(-c2cc(NCCO)nc3[nH]ccc23)n1 | 28.94 | 12 | 2.349 | -20.32

4 of the entries, repeated:

compound,Pks13 thioesterase,TcHisRS,MtTrpRS,ClpP1P2
CS(=O)(=O)N1CC[C@@H](CC(=O)O)[C@@H](CC2=NCCc3cc(F)ccc32)C1,-23.74,6.931,4.593,-10.71
CS(=O)(=O)CCSc1nnc(Cc2ccccc2F)o1,-,0,5.235,-11.1
Cc1nccn1C1CCCN(C(=O)c2ccc3c(c2)nnn3C)C1 (centres unmarked),-11.7,1.515,-1.267,-0.5819
CC(C)(C)c1noc(CCC(=O)N2CCN(Cc3ccc(Cl)s3)CC2)n1,-3.07,3.509,-0.6461,15.47

Measurements from “University of Dundee, Small-Polar-MMV Screening Library” (2021), ChEMBL document CHEMBL3988442.